Measurements taken from paper PMC11106448.
These are yes or no findings as the source states them, for the method shown. In cells and extracts the contact can be indirect.

Amino acid sequences for entries named in this document (tags omitted).
UniProt Q9GZV5: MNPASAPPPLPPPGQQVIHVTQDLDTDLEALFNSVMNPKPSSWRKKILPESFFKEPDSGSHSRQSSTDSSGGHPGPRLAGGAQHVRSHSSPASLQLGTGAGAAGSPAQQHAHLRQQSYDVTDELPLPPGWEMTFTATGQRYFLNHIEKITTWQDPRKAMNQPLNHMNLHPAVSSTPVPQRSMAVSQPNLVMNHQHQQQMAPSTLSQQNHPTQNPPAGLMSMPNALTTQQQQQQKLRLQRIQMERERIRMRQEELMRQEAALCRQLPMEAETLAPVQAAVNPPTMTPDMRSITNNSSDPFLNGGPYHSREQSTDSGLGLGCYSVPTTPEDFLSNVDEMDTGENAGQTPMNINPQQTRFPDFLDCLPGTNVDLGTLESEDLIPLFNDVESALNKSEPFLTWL
UniProt P61586: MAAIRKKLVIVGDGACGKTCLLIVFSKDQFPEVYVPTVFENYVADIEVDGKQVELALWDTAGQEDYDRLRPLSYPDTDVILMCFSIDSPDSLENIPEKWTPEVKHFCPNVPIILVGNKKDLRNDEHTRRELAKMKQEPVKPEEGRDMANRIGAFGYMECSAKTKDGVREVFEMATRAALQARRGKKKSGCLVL

Target: transcriptional coactivator with PDZ-binding motif (TAZ) (human (endogenous in MDA-MB-231)) (UniProt Q9GZV5)
Assay: co-IP; endogenous proteins of MDA-MB-231 cells; pull-down samples with anti-TAZ antibody or anti-RhoA antibody, pre-immune mouse or rabbit IgG as controls; immunoblotting

binding: no binding
Substance: RhoA, a small Rho GTPase protein (from UniProt P61586 1-193)
